Measurements reported in the supplement of paper PMC12823440, “Inhibitors supercharge kinase turnover through native proteolytic circuits” (Nature, 2025).
The list shows a part of the results. Hit calls seldom repeat between salt and free forms of one compound.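 Kinases were expressed as nanoluciferase fusions in K562 cells and luminescence was read every 4 h between 2 and 18 h as percent of control, DMSO set to 100% and a positive control to 0%. A time point counts as decreased when the signal drops significantly (2 sigma). The hit call is the authors' own, does not follow from the count of time points alone, and its rule is not shown.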

Chains of the proteins cited; added tags and fusions are not shown. Lines headed by an entry give the natural chain unless they say otherwise; changes in a name come on top.
UniProt P50613: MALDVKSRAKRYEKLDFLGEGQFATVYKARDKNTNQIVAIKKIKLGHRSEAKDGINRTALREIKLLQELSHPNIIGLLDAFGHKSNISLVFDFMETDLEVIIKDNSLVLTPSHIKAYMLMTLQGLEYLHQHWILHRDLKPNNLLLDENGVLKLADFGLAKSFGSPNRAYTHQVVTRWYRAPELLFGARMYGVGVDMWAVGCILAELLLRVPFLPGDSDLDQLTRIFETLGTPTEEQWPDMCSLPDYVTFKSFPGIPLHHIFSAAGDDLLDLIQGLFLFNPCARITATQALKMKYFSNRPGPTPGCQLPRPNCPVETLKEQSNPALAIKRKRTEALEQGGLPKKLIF
UniProt P50750, whole entry: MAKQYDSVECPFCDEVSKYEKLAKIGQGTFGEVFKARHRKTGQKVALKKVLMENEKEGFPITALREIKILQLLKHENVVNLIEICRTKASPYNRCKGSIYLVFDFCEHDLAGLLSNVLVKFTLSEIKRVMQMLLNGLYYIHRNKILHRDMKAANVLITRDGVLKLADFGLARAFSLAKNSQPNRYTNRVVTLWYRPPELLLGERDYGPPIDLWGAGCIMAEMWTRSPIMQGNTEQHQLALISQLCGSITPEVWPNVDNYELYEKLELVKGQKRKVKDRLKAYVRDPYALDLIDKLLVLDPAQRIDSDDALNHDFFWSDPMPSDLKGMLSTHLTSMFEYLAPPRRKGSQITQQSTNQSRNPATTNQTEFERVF
UniProt O96017, whole entry: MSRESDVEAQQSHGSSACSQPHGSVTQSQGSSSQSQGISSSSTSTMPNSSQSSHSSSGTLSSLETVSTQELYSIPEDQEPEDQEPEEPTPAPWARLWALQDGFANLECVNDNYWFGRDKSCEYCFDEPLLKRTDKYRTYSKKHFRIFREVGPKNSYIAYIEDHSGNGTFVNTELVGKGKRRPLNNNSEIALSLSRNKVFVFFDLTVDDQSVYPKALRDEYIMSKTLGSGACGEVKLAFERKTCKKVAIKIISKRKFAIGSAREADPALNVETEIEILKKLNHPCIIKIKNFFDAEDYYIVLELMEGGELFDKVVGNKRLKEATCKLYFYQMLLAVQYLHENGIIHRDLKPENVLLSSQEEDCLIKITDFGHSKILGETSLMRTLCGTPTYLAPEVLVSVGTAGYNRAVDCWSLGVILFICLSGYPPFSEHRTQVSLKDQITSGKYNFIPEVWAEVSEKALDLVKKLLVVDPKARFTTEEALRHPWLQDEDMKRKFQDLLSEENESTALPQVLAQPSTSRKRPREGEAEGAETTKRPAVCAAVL
UniProt P07333, whole entry: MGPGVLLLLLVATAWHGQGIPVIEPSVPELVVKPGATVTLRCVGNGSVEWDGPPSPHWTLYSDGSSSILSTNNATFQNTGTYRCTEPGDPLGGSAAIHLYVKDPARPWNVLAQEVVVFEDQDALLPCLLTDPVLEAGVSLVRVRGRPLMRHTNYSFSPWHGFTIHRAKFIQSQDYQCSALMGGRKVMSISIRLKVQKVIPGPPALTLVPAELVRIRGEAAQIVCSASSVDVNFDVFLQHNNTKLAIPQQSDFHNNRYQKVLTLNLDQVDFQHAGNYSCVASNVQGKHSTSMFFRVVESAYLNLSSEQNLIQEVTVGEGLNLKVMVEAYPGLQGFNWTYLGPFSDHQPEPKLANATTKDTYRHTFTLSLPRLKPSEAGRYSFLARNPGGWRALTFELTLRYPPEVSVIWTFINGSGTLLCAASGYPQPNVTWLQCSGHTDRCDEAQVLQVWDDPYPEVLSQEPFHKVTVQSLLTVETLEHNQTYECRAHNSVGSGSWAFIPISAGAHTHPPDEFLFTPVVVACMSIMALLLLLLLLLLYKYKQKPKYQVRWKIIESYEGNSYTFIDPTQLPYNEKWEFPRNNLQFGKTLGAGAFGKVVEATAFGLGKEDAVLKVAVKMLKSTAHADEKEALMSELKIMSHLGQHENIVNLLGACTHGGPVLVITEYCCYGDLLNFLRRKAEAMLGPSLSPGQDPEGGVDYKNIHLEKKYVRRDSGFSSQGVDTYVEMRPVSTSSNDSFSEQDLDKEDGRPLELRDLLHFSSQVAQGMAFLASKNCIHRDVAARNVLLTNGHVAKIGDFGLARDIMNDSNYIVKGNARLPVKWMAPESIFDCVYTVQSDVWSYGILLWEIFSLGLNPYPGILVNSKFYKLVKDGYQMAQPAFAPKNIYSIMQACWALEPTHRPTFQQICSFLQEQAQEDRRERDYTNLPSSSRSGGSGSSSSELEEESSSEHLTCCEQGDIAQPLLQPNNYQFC
UniProt P41240: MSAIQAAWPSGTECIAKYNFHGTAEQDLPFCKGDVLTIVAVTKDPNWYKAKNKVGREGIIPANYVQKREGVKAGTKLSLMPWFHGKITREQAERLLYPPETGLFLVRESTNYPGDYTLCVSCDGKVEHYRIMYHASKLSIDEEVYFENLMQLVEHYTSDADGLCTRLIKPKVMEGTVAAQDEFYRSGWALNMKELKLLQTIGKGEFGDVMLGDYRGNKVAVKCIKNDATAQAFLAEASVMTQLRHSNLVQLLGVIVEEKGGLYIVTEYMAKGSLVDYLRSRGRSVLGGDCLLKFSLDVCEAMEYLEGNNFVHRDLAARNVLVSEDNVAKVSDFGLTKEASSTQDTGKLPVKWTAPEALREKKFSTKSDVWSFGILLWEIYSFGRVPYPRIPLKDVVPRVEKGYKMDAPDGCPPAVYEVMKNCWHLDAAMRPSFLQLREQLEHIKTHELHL
UniProt P48729: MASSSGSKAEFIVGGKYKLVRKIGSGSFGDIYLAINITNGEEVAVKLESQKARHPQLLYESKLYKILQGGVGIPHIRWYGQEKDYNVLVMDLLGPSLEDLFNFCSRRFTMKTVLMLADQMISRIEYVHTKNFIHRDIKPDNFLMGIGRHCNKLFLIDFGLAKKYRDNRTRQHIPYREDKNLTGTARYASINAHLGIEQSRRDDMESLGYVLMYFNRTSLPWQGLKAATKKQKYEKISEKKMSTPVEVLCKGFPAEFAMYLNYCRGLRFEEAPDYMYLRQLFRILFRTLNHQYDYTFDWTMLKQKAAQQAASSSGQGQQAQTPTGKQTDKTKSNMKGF
UniProt P48730: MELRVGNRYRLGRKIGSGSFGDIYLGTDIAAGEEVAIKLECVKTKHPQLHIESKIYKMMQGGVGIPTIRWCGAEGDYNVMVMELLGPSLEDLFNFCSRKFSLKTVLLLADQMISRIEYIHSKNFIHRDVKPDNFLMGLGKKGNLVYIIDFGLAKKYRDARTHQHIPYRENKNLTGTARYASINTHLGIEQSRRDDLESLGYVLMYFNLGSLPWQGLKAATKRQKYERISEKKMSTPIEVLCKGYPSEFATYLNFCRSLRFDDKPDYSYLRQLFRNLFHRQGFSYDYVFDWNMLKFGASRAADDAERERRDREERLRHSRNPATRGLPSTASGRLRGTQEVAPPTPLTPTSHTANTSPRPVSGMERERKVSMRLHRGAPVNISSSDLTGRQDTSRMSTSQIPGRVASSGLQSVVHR
UniProt Q08345: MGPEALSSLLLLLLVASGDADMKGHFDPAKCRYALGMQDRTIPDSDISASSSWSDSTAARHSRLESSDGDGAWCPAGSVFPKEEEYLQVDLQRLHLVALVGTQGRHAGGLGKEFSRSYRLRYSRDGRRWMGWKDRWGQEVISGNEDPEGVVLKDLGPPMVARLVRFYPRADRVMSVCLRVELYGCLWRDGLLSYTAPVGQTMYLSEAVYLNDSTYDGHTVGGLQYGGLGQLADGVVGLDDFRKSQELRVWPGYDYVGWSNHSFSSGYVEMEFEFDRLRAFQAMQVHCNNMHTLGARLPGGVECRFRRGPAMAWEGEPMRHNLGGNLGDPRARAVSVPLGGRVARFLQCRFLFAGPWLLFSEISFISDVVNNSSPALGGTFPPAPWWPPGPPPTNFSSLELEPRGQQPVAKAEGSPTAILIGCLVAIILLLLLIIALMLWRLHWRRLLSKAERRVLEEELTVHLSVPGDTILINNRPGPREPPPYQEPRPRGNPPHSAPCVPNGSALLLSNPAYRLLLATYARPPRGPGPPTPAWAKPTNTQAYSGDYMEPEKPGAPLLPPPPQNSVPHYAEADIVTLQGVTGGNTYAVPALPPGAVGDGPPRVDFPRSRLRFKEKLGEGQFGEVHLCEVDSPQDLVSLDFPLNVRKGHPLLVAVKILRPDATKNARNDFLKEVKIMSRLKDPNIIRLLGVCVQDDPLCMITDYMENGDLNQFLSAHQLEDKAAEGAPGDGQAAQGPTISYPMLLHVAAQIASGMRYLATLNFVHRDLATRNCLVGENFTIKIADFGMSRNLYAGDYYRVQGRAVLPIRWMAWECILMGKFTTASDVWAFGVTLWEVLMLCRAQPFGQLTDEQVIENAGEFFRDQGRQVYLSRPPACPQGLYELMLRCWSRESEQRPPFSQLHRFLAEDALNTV
UniProt Q9Y463, whole entry, looked up: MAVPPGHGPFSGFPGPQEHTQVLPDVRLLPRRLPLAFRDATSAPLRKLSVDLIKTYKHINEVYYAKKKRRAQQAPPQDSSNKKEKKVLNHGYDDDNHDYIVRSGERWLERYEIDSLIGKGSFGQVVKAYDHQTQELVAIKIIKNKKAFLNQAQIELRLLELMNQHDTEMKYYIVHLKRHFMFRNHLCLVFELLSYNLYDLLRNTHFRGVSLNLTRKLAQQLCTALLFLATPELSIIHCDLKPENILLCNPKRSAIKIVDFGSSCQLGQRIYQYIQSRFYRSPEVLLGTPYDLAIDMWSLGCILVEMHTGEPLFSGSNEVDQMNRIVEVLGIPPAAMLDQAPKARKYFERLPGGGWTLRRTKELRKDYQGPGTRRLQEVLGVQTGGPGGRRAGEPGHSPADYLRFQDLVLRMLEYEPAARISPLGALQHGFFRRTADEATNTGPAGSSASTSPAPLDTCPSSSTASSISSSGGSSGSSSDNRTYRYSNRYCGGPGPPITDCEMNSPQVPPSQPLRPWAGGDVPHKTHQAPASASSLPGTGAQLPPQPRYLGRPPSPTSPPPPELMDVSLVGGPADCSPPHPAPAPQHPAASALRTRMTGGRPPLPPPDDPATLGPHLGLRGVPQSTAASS
UniProt Q92630: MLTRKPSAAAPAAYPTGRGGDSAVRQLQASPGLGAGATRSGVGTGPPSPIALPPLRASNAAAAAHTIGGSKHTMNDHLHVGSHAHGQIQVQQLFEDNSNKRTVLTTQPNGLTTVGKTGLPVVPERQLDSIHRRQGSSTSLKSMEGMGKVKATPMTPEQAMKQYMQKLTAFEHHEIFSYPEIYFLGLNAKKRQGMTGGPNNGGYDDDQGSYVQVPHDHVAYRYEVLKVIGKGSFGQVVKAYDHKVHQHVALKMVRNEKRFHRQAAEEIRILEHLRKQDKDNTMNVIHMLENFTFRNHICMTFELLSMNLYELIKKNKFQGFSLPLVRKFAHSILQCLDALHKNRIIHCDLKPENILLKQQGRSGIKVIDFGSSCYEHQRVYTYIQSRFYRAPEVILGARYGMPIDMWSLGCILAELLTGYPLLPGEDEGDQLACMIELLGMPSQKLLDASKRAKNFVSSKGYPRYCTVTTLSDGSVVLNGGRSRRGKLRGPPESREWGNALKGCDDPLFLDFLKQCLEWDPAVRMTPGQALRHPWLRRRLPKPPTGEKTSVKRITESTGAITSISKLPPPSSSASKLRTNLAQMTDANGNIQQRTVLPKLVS

What was measured:
Assay in all cases: kinase-Nluc reporter destabilization hit call (1 = scored as downregulated) (binary); higher = compound decreases kinase abundance
Conditions in all cases: K562; 2-18 h
CDK7 = CDK7 (UniProt P50613)
CDK9 = CDK9 (UniProt P50750)
CHEK2 = CHEK2 (UniProt O96017)
CSF1R = CSF1R (UniProt P07333)
CSK = CSK (UniProt P41240)
CSNK1A1 = CSNK1A1 (UniProt P48729)
CSNK1D = CSNK1D (UniProt P48730)
DDR1 = DDR1 (UniProt Q08345)
DYRK1B = DYRK1B (UniProt Q9Y463)
DYRK2 = DYRK2 (UniProt Q92630)

Measured: kinase-Nluc reporter destabilization hit call

CC1=C(C(=O)Nc2ccc3[nH]ncc3c2)C(c2ccc(F)c(C(=O)NCc3ccccn3)c2)NC(=O)N1 (stereo not given) (10 µM)
inactive: CDK7 = 0 | CDK9 = 0 | CHEK2 = 0 | CSF1R 0 | CSK 0 | CSNK1A1 = 0 | CSNK1D 0 | DDR1 = 0 | DYRK1B 0 | DYRK2 = 0

CS(=O)(=O)N1CCN(Cc2cn3cc(-c4cnc(N)nc4)nc(N4CCOCC4)c3n2)CC1 (10 µM)
inactive: CDK7 = 0 | CDK9 = 0 | CHEK2 = 0 | CSF1R 0 | CSK 0 | CSNK1A1 = 0 | CSNK1D 0 | DDR1 = 0 | DYRK1B 0 | DYRK2 = 0

CC[C@@H]1CN(C(=O)NCC(F)(F)F)C[C@@H]1c1cnc2cnc3[nH]ccc3n12 [Upadacitinib] (10 µM)
inactive: CDK7 = 0 | CDK9 = 0 | CHEK2 = 0 | CSF1R 0 | CSK 0 | CSNK1A1 = 0 | CSNK1D 0 | DDR1 = 0 | DYRK1B 0 | DYRK2 = 0

CCN1C(C)(C)CC(Oc2ccc(C(=O)Nc3ccc(NC(=O)Nc4cc(C(C)(C)C)on4)cc3)nc2)CC1(C)C (10 µM)
inactive: CDK7 = 0 | CDK9 = 0 | CHEK2 = 0 | CSF1R 0 | CSK 0 | CSNK1A1 = 0 | CSNK1D 0 | DDR1 = 0 | DYRK1B 0 | DYRK2 = 0

Cc1nc(NC(=O)N2CCC[C@H]2C(N)=O)sc1-c1csc(C(C)(C)C)n1 (10 µM)
inactive: CDK7 = 0 | CDK9 = 0 | CHEK2 = 0 | CSF1R 0 | CSK 0 | CSNK1A1 = 0 | CSNK1D 0 | DDR1 = 0 | DYRK1B 0 | DYRK2 = 0

COc1ncc2cc(C(=O)Nc3cc(C(=O)NCc4cccc(Cl)c4)ccc3Cl)c(=O)[nH]c2n1 (2.5 µM)
inactive: CDK7 = 0 | CDK9 = 0 | CHEK2 = 0 | CSF1R 0 | CSK 0 | CSNK1A1 = 0 | CSNK1D 0 | DDR1 = 0 | DYRK1B 0 | DYRK2 = 0

Cc1cc(=O)[nH]c(=S)[nH]1 [Methylthiouracil] (10 µM)
inactive: CDK7 = 0 | CDK9 = 0 | CHEK2 = 0 | CSF1R 0 | CSK 0 | CSNK1A1 = 0 | CSNK1D 0 | DDR1 = 0 | DYRK1B 0 | DYRK2 = 0

O=c1cc(-c2ccc(O)cc2)oc2cc(O)c(O)c(O)c12 [Scutellarein] (10 µM)
inactive: CDK7 = 0 | CDK9 = 0 | CHEK2 = 0 | CSF1R 0 | CSK 0 | CSNK1A1 = 0 | CSNK1D 0 | DDR1 = 0 | DYRK1B 0 | DYRK2 = 0

CC(=O)c1cc(O)ccc1O [2,5-Dihydroxyacetophenone] (10 µM)
inactive: CDK7 = 0 | CDK9 = 0 | CHEK2 = 0 | CSF1R 0 | CSK 0 | CSNK1A1 = 0 | CSNK1D 0 | DDR1 = 0 | DYRK1B 0 | DYRK2 = 0

Cn1sc(=O)n(Cc2ccccc2)c1=O (10 µM)
inactive: CDK7 = 0 | CDK9 = 0 | CHEK2 = 0 | CSF1R 0 | CSK 0 | CSNK1A1 = 0 | CSNK1D 0 | DDR1 = 0 | DYRK1B 0 | DYRK2 = 0

C=CC(=O)Nc1cccc(Oc2nc(Nc3ccc(N4CCN(C)CC4)cc3)ncc2Cl)c1 (2.5 µM)
inactive: CDK7 = 0 | CDK9 = 0 | CHEK2 = 0 | CSF1R 0 | CSK 0 | CSNK1A1 = 0 | CSNK1D 0 | DDR1 = 0 | DYRK1B 0 | DYRK2 = 0

CCS(=O)(=O)c1ccc(Oc2cc(O[C@@H](C)CO)cc(C(=O)Nc3ccn(C)n3)c2)cn1 (10 µM)
inactive: CDK7 = 0 | CDK9 = 0 | CHEK2 = 0 | CSF1R 0 | CSK 0 | CSNK1A1 = 0 | CSNK1D 0 | DDR1 = 0 | DYRK1B 0 | DYRK2 = 0

O=C(N/N=C/c1ccc([N+](=O)[O-])o1)c1ccc(O)cc1 [Nifuroxazide] (10 µM)
inactive: CDK7 = 0 | CDK9 = 0 | CHEK2 = 0 | CSF1R 0 | CSK 0 | CSNK1A1 = 0 | CSNK1D 0 | DDR1 = 0 | DYRK1B 0 | DYRK2 = 0

O=C1C(=Cc2ccc(O)c(O)c2)Oc2ccccc21 (2.5 µM)
inactive: CDK7 = 0 | CDK9 = 0 | CHEK2 = 0 | CSF1R 0 | CSK 0 | CSNK1A1 = 0 | CSNK1D 0 | DDR1 = 0 | DYRK1B 0 | DYRK2 = 0

COc1cc(-c2cnc(N)c(-c3ccc(NC(=O)c4cn(CC5CCOCC5)cc(-c5ccc(C)cn5)c4=O)cc3F)c2)ccc1OC[C@H]1COCCO1 [DS-1205b (free base)] (10 µM)
inactive: CDK7 = 0 | CDK9 = 0 | CHEK2 = 0 | CSF1R 0 | CSK 0 | CSNK1A1 = 0 | CSNK1D 0 | DDR1 = 0 | DYRK1B 0 | DYRK2 = 0

C=CC(=O)Nc1cccc(Oc2nc(Nc3ccc(N4CCN(C)CC4)cc3)nc3ccsc23)c1 [Olmutinib] (2.5 µM)
inactive: CDK7 = 0 | CDK9 = 0 | CHEK2 = 0 | CSF1R 0 | CSK 0 | CSNK1A1 = 0 | CSNK1D 0 | DDR1 = 0 | DYRK1B 0 | DYRK2 = 0

CC(C)Cn1cc(C#N)c2cc(Oc3ccc(NC(=O)[C@@H]4CCCN4)cc3)ccc21 (10 µM)
inactive: CDK7 = 0 | CDK9 = 0 | CHEK2 = 0 | CSF1R 0 | CSK 0 | CSNK1A1 = 0 | CSNK1D 0 | DDR1 = 0 | DYRK1B 0 | DYRK2 = 0

O=C1c2cccc(O)c2C(=O)c2c(O)cccc21 [Danthron] (10 µM)
inactive: CDK7 = 0 | CDK9 = 0 | CHEK2 = 0 | CSF1R 0 | CSK 0 | CSNK1A1 = 0 | CSNK1D 0 | DDR1 = 0 | DYRK1B 0 | DYRK2 = 0

Three structures already listed, ordered by SMILES length, smallest number first:
Cn1sc(=O)n(Cc2ccccc2)c1=O (10 µM)
inactive: CDK7 = 0 | CDK9 = 0 | CHEK2 = 0 | CSF1R 0 | CSK 0 | CSNK1A1 = 0 | CSNK1D 0 | DDR1 = 0 | DYRK1B 0 | DYRK2 = 0

O=c1cc(-c2ccc(O)cc2)oc2cc(O)c(O)c(O)c12 [Scutellarein] (10 µM)
inactive: CDK7 = 0 | CDK9 = 0 | CHEK2 = 0 | CSF1R 0 | CSK 0 | CSNK1A1 = 0 | CSNK1D 0 | DDR1 = 0 | DYRK1B 0 | DYRK2 = 0

COc1cc(-c2cnc(N)c(-c3ccc(NC(=O)c4cn(CC5CCOCC5)cc(-c5ccc(C)cn5)c4=O)cc3F)c2)ccc1OC[C@H]1COCCO1 [DS-1205b (free base)] (10 µM)
inactive: CDK7 = 0 | CDK9 = 0 | CHEK2 = 0 | CSF1R 0 | CSK 0 | CSNK1A1 = 0 | CSNK1D 0 | DDR1 = 0 | DYRK1B 0 | DYRK2 = 0

Later entries

CC(C)(O)c1cc2nc(-c3cnc(N)nc3)nc(N3CCOCC3)c2s1 (2.5 µM)
inactive: CDK7 = 0 | CDK9 = 0 | CHEK2 = 0 | CSF1R 0 | CSK 0 | CSNK1A1 = 0 | CSNK1D 0 | DDR1 = 0 | DYRK1B 0 | DYRK2 = 0

CNS(=O)(=O)C[C@H]1CC[C@H](N(C)c2[nH]cnc3nccc2-3)CC1 [Oclacitinib (maleate)] (10 µM)
inactive: CDK7 = 0 | CDK9 = 0 | CHEK2 = 0 | CSF1R 0 | CSK 0 | CSNK1A1 = 0 | CSNK1D 0 | DDR1 = 0 | DYRK1B 0 | DYRK2 = 0

O=c1cc(N2CCOCC2)oc2c1ccc1ccccc12 (2 µM)
inactive: CDK7 = 0 | CDK9 = 0 | CHEK2 = 0 | CSF1R 0 | CSK 0 | CSNK1A1 = 0 | CSNK1D 0 | DDR1 = 0 | DYRK1B 0 | DYRK2 = 0

CC(C)(C)S(=O)(=O)c1ccc2nccc(Nc3n[nH]c4ccc(F)cc34)c2c1 (10 µM)
inactive: CDK7 = 0 | CDK9 = 0 | CHEK2 = 0 | CSF1R 0 | CSK 0 | CSNK1A1 = 0 | CSNK1D 0 | DDR1 = 0 | DYRK1B 0 | DYRK2 = 0

C[C@H](CC[C@@H](O)C(C)(C)O)[C@H]1CC[C@@]2(C)[C@@H]3CC=C4[C@@H](CC[C@H](O)C4(C)C)[C@]3(C)[C@H](O)C[C@]12C [Mogrol] (10 µM)
inactive: CDK7 = 0 | CDK9 = 0 | CHEK2 = 0 | CSF1R 0 | CSK 0 | CSNK1A1 = 0 | CSNK1D 0 | DDR1 = 0 | DYRK1B 0 | DYRK2 = 0

N#C/C(=C\c1ccc[nH]1)c1ccc(Cl)c(Cl)c1 (2.5 µM)
inactive: CDK7 = 0 | CDK9 = 0 | CHEK2 = 0 | CSF1R 0 | CSK 0 | CSNK1A1 = 0 | CSNK1D 0 | DDR1 = 0 | DYRK1B 0 | DYRK2 = 0

O=C(N=c1sccn1Cc1ccccc1)c1c[nH]c2ncccc12 (10 µM)
inactive: CDK7 = 0 | CDK9 = 0 | CHEK2 = 0 | CSF1R 0 | CSK 0 | CSNK1A1 = 0 | CSNK1D 0 | DDR1 = 0 | DYRK1B 0 | DYRK2 = 0

N#Cc1c[nH]c2ccc(-c3ccc(-c4c(O)cccc4O)cc3)cc12 (10 µM)
inactive: CDK7 = 0 | CDK9 = 0 | CHEK2 = 0 | CSF1R 0 | CSK 0 | CSNK1A1 = 0 | CSNK1D 0 | DDR1 = 0 | DYRK1B 0 | DYRK2 = 0

CC(=O)NCC(=O)N[C@@H](C)C(=O)N[C@@H](CCC(N)=O)C(=O)N[C@@H](Cc1ccccc1)C(=O)N[C@@H](CO)C(=O)N[C@@H](CCCCN)C(=O)N[C@H](C(=O)N[C@@H](C)C(=O)N[C@@H](C)C(=O)N[C@@H](CCCCN)C(=O)O)[C@@H](C)O (10 µM)
inactive: CDK7 = 0 | CDK9 = 0 | CHEK2 = 0 | CSF1R 0 | CSK 0 | CSNK1A1 = 0 | CSNK1D 0 | DDR1 = 0 | DYRK1B 0 | DYRK2 = 0

COC(=O)c1cc2c(OC(C)C)cc(OC(C)C)cc2[nH]1 (2.5 µM)
inactive: CDK7 = 0 | CDK9 = 0 | CHEK2 = 0 | CSF1R 0 | CSK 0 | CSNK1A1 = 0 | CSNK1D 0 | DDR1 = 0 | DYRK1B 0 | DYRK2 = 0

C=CC(=O)Nc1cccc(Nc2nc(Nc3ccc(Oc4ccnc(C(=O)NC)c4)cc3)ncc2F)c1 (2.5 µM)
inactive: CDK7 = 0 | CDK9 = 0 | CHEK2 = 0 | CSF1R 0 | CSK 0 | CSNK1A1 = 0 | CSNK1D 0 | DDR1 = 0 | DYRK1B 0 | DYRK2 = 0

O=C(Nc1nc2cccc(-c3ccc(CN4CCS(=O)(=O)CC4)cc3)n2n1)C1CC1 [Filgotinib] (2.5 µM)
inactive: CDK7 = 0 | CDK9 = 0 | CHEK2 = 0 | CSF1R 0 | CSK 0 | CSNK1A1 = 0 | CSNK1D 0 | DDR1 = 0 | DYRK1B 0 | DYRK2 = 0

O=c1sn(-c2cccc3ccccc23)c(=O)n1Cc1ccccc1 [Tideglusib] (10 µM)
inactive: CDK7 = 0 | CDK9 = 0 | CHEK2 = 0 | CSF1R 0 | CSK 0 | CSNK1A1 = 0 | CSNK1D 0 | DDR1 = 0 | DYRK1B 0 | DYRK2 = 0

COc1cc(-c2cc(-c3cccc(O)c3)cnc2N)cc(OC)c1OC (2.5 µM)
inactive: CDK7 = 0 | CDK9 = 0 | CHEK2 = 0 | CSF1R 0 | CSK 0 | CSNK1A1 = 0 | CSNK1D 0 | DDR1 = 0 | DYRK1B 0 | DYRK2 = 0
